Data as given in the supplement of paper PMC12823440, “Inhibitors supercharge kinase turnover through native proteolytic circuits” (Nature, 2025).
Where a name gives a salt, the structure may show the parent alone. The list shows a part of the results. Hit calls seldom repeat between salt and free forms of one compound.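 In K562 cells expressing nanoluciferase-fused kinases, luminescence was recorded at 4 h intervals between 2 and 18 h, normalized as percent of control with DMSO at 100% and a positive control at 0%. A significant (2 sigma) signal drop marks a time point as decreased. The authors' rule for a hit is not shown and takes in more than the number of time points.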

Protein sequences, listed by entry. Tags and fused reporters are not part of them. Lines headed by an entry give the natural chain unless they say otherwise; changes in a name come on top.
UniProt P10398: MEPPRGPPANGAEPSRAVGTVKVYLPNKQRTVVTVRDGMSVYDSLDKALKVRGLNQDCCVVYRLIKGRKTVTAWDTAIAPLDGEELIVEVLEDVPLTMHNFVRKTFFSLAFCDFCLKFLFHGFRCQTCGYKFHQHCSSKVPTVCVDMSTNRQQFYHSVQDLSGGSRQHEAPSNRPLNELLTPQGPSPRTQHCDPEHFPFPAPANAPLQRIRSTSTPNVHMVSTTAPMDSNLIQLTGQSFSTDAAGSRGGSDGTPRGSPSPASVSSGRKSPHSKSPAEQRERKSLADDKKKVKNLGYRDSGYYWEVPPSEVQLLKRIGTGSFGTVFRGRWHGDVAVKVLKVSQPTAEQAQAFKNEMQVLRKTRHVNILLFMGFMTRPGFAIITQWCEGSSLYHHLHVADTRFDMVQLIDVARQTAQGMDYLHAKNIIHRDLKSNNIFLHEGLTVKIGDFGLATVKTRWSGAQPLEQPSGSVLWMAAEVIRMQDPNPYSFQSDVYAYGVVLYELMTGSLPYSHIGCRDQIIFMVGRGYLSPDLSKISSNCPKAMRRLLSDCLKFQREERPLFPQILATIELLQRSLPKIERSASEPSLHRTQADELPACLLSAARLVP
UniProt O14965: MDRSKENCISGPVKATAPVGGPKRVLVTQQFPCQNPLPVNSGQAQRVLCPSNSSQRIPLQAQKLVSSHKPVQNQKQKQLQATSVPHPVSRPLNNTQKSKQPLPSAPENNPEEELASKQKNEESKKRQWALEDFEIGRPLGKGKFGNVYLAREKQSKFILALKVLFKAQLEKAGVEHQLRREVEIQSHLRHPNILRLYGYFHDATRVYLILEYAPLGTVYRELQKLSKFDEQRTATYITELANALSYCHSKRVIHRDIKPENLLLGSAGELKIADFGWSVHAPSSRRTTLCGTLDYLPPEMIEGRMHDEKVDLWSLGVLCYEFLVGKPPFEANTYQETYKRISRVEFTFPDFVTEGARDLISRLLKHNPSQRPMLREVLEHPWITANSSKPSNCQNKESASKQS

Each compound was assayed against ARAF (UniProt P10398) (assay: kinase-Nluc reporter destabilization hit call (1 = scored as downregulated) (binary); higher = compound decreases kinase abundance). Details: K562; 2-18 h.

kinase-Nluc reporter destabilization hit call, inactive:
Cc1c(-c2c(F)cc(C(N)=O)c3[nH]c4c(c23)CC[C@H](C(C)(C)O)C4)cccc1-n1c(=O)c2cccc(F)c2n(C)c1=O (2.5 µM) 0
c1cncc(CN2CCC(n3ncc4c(N5CCOCC5)nc(-c5ccc6[nH]ccc6c5)nc43)CC2)c1 (10 µM) 0
Cc1cccc(-c2[nH]ncc2-c2ccc(F)c(-c3cnn(CCO)c3)c2)n1 (10 µM) 0
COc1cc2nccc(Oc3ccc(NC(=O)NC4CC4)c(Cl)c3)c2cc1C(N)=O [Lenvatinib (mesylate)] (10 µM) 0
COc1cc2c(N3CCN(C(=O)Nc4ccc(OC(C)C)cc4)CC3)ncnc2cc1OCCCN1CCCCC1 [Tandutinib] (10 µM) 0
COc1cccc(OC)c1C(=O)OCc1cc(O)ccc1O[C@@H]1O[C@H](CO)[C@@H](O)[C@H](O)[C@H]1O [Curculigoside] (10 µM) 0
CNC(=O)c1ccc(C)c(-n2c(C)cc(OCc3ccc(F)cc3F)c(Br)c2=O)c1 (10 µM) 0
C=CC(=O)Nc1cc(C)ccc1Nc1nc(Nc2cc(OC)ncc2C)ncc1C(F)(F)F (10 µM) 0
CC(=O)NC1CC(n2cnc(NC(=O)Cc3ccc4ccccc4c3)c2)C1 (configuration not stated) (10 µM) 0

The compounds below were run against AURKA (UniProt O14965) in the same assay as above. Details: K562; 2-18 h.

kinase-Nluc reporter destabilization hit call, inactive:
COc1cc2nccc(Oc3ccc(NC(=O)NC4CC4)c(Cl)c3)c2cc1C(N)=O [Lenvatinib] (10 µM) 0
COc1ccc2c(OCc3nnc4ccc(-c5ccccc5)nn34)ccnc2c1 (2 µM) 0
COc1cc2ncnc(Nc3ccc(Cl)cc3F)c2cc1OC (10 µM) 0
N#Cc1c(C2CCNCC2)cc(-c2c(O)cccc2OCC2CC2)nc1N [ACHP (Hydrochloride)] (10 µM) 0
CNC(=O)c1c(F)cccc1Nc1nc(Nc2cc3c(cc2OC)CCN3C(=O)CN(C)C)nc2[nH]ccc12 (10 µM) 0
COc1cc2c(N3CCN(C(=O)Nc4ccc(OC(C)C)cc4)CC3)ncnc2cc1OCCCN1CCCCC1 [Tandutinib (hydrochloride)] (10 µM) 0
CN1CCN(c2cccc(Nc3nc4c(-c5ccc(S(C)(=O)=O)cc5)cccn4n3)c2)CC1 (10 µM) 0
Cn1cc(-c2ccc3c(c2)CCN3C(=O)Cc2cccc(C(F)(F)F)c2)c2c(N)ncnc21 (2.5 µM) 0
O=Nc1c(-c2c(O)[nH]c3ccc(F)cc23)[nH]c2ccccc12 [5'-Fluoroindirubinoxime] (10 µM) 0
C=C(CC[C@@H](C(=O)O)[C@H]1[C@H](O)C[C@@]2(C)C3=C(CC[C@]12C)[C@@]1(C)CC[C@H](OC(C)=O)C(C)(C)[C@@H]1CC3)C(C)C [Pachymic acid] (10 µM) 0
Cc1cc(Nc2ncnc3ccc(NC4=NC(C)(C)CO4)cc23)ccc1Oc1ccn2ncnc2c1 [Tucatinib] (2.5 µM) 0
CCNc1nc(Nc2cc(F)c(C(=O)N3CCOCC3)cc2OC)ncc1C(F)(F)F [GNE-7915 (tosylate)] (10 µM) 0
Cc1ccc(C(=O)Nc2ccc(Oc3cc4cnn(C)c4cc3-c3cn[nH]c3)c(F)c2)c(=O)n1-c1ccc(F)cc1 [Merestinib dihydrochloride] (2.5 µM) 0
Nc1ncnc2c1c(-c1cccc(OCc3ccccc3)c1)cn2C1CC(CN2CCC2)C1 (configuration not stated) (2.5 µM) 0
Cn1cnc2c(F)c(Nc3ccc(Br)cc3Cl)c(C(=O)NOCCO)cc21 [Selumetinib (sulfate)] (10 µM) 0
Cc1cc(Nc2ncnc3ccc(NC4=NC(C)(C)CO4)cc23)ccc1Oc1ccn2ncnc2c1 [Tucatinib (hemiethanolate)] (2.5 µM) 0
Cc1cc2ncc(-c3ccc(O)c(O)c3)nc2cc1C [Tyrphostin AG1433] (10 µM) 0
CCN1CCN(Cc2ccc(Nc3ncc(F)c(-c4cc(F)c5nc(C)n(C(C)C)c5c4)n3)nc2)CC1 [Abemaciclib (methanesulfonate)] (10 µM) 0
Cn1cnc2c(F)c(Nc3ccc(Br)cc3Cl)c(C(=O)NOCCO)cc21 [Selumetinib] (10 µM) 0
S=C(SSC(=S)N1CCOCC1)N1CCOCC1 (10 µM) 0
Cn1nccc1Nc1nccc(-c2ccn([C@H](CO)c3ccc(Cl)c(F)c3)c(=O)c2)n1 [Ravoxertinib hydrochloride] (10 µM) 0
Cc1ccc(C(=O)Nc2ccc(Oc3cc4cnn(C)c4cc3-c3cn[nH]c3)c(F)c2)c(=O)n1-c1ccc(F)cc1 [Merestinib] (2.5 µM) 0
c1ccc(-c2[nH]ncc2-c2ccnc3ccccc23)nc1 (10 µM) 0
O=C(CSC1=NCCN1)NC1CCCCCC1 [ICCB-19 (hydrochloride)] (2.5 µM) 0
Cn1cc(-c2cnn3c(N)c(Br)c([C@@H]4CCCNC4)nc23)cn1 (2.5 µM) 0
O=C(Nc1cn[nH]c1-c1ccccn1)c1nn(C2CCNCC2)cc1Cl (10 µM) 0
Cc1nc(-c2cn3c(n2)-c2ccc(-c4cnn(C(C)(C)C(N)=O)c4)cc2OCC3)n(C(C)C)n1 [Taselisib] (10 µM) 0
O=C(NCCN1CCOCC1)c1cc2c(Oc3ccc(NC(=O)C4(C(=O)Nc5ccc(F)cc5)CC4)cc3)ccnc2[nH]1 [Tyrosine kinase inhibitor] (10 µM) 0
CN(CC(=O)N(Cc1ccc(C2CCCCC2)cc1)c1ccc(C(=O)NO)cc1)S(=O)(=O)c1c(F)c(F)c(F)c(F)c1F (2.5 µM) 0
Cc1c(-c2c(F)cc(C(N)=O)c3[nH]c4c(c23)CC[C@H](C(C)(C)O)C4)cccc1-n1c(=O)c2cccc(F)c2n(C)c1=O (2.5 µM) 0
c1cncc(CN2CCC(n3ncc4c(N5CCOCC5)nc(-c5ccc6[nH]ccc6c5)nc43)CC2)c1 (10 µM) 0
Cc1cccc(-c2[nH]ncc2-c2ccc(F)c(-c3cnn(CCO)c3)c2)n1 (10 µM) 0
COc1cc2nccc(Oc3ccc(NC(=O)NC4CC4)c(Cl)c3)c2cc1C(N)=O [Lenvatinib (mesylate)] (10 µM) 0
COc1cc2c(N3CCN(C(=O)Nc4ccc(OC(C)C)cc4)CC3)ncnc2cc1OCCCN1CCCCC1 [Tandutinib] (10 µM) 0
COc1cccc(OC)c1C(=O)OCc1cc(O)ccc1O[C@@H]1O[C@H](CO)[C@@H](O)[C@H](O)[C@H]1O [Curculigoside] (10 µM) 0
CNC(=O)c1ccc(C)c(-n2c(C)cc(OCc3ccc(F)cc3F)c(Br)c2=O)c1 (10 µM) 0
C=CC(=O)Nc1cc(C)ccc1Nc1nc(Nc2cc(OC)ncc2C)ncc1C(F)(F)F (10 µM) 0
CC(=O)NC1CC(n2cnc(NC(=O)Cc3ccc4ccccc4c3)c2)C1 (configuration not stated) (10 µM) 0
